Converted amounts (≈) assume the structure as drawn.
Assays:
[1] = test system: Staphylococcus aureus ATCC BAA-1556 (MERSA resistant); experiment: Antibacterial activity, dilution susceptibility test (CLSI M07-A10); type: cell-based; settings: ATCCBAA1556
[2] = test system: Staphylococcus aureus ATCC 29213; experiment: as above; type: cell-based; settings: ATCC29213

SMILES: CN[C@H](CC(C)C)C(=O)N[C@H]1C(=O)N[C@@H](CC(N)=O)C(=O)N[C@H]2C(=O)N[C@H]3C(=O)N[C@H](C(=O)N[C@H](C(=O)O)c4cc(O)cc(O)c4-c4cc3ccc4O)[C@H](O)c3ccc(c(Cl)c3)Oc3cc2cc(c3O[C@@H]2O[C@H](CO)[C@@H](O)[C@H](O)[C@H]2O[C@H]2C[C@](C)(N)[C@H](O)[C@H](C)O2)Oc2ccc(cc2Cl)[C@H]1O [Vancomycin, reference compound]
- MIC [1]: 1 µg/mL (≈ 0.69 µM)
- MIC [2]: 1 µg/mL (≈ 0.69 µM)
